Data as given in PubChem BioAssay AID743121 (NCATS, 2013).
Here is one part, drawn at random, of about 26,000 reagents tested. Over the whole deposit, 167 (0.63%) were called active. 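Calls are per gene from RSA p-values that are not deposited; an individual active-marked siRNA can sensitise only weakly.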 The numbers tell different reagents against one gene apart. Further read-outs or replicates are left out here. No sequences are given here.

- Purpose: 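Knock-downs that sensitise breast cancer cells to camptothecin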 (primary screen)
- Cells: MDA-MB-231 cells, a human breast cancer line
- Reagent: single siRNA against human genes, 20 nM siRNA (0.8 pmol per well)
- Duration: 120 h (drug added 48 h after transfection, read 72 h later)
- Challenge: camptothecin 20 nM (about EC30) for 72 h; vehicle 0.1% DMSO in parallel plates
- Read-out: 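Cell viability by ATP luminescence (CellTiter-Glo) as % of non-targeting siRNA wells, and the log2 ratio of viability without drug over viability with camptothecin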
- Scale: log2 vehicle/camptothecin viability: higher = stronger sensitisation to camptothecin
- Call rule: 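Active genes have an RSA gene-level p-value below 0.001, computed from the ratios of their separate siRNAs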

log2 vehicle/camptothecin viability, by gene symbol and reagent
GJB2: #1 -0.381 inactive; #2 0.129 inactive; #3 -0.0266 inactive; #4 0.0305 inactive
MYH7B: #1 -0.171 inactive; #2 -0.236 inactive; #3 -0.29 inactive; #4 0.406 inactive
PAK1: #1 0.638 inactive; #2 0.0838 inactive; #3 -0.0901 inactive; #4 -0.144 inactive
HSPA4: #1 -0.0695 inactive; #2 -0.117 inactive; #3 0.148 inactive; #4 -0.314 inactive
CYSLTR1: #1 0.0599 inactive; #2 -0.289 inactive; #3 -0.286 inactive; #4 -0.172 inactive
ITGAM: #1 -0.305 inactive; #2 -0.524 inactive; #3 0.0941 inactive; #4 0.0745 inactive
ELK4: #1 0.314 inactive; #2 -0.0763 inactive; #3 0.0611 inactive; #4 -0.337 inactive
SEC11B: #1 0.147 inactive; #2 0.0351 inactive; #3 -0.0726 inactive
CTSS: #1 -0.0972 inactive; #2 -0.0291 inactive; #3 -0.123 inactive; #4 -0.378 inactive
MCEMP1: #1 -0.042 inactive; #2 -0.637 inactive; #3 0.0992 inactive; #4 -0.393 inactive
SKP2: #1 -0.266 inactive; #2 0.12 inactive; #3 0.446 inactive; #4 -0.0969 inactive
GLRA3: #1 -0.149 inactive; #2 -0.285 inactive; #3 0.253 inactive
NCR3: #1 -0.366 inactive; #2 -0.447 inactive; #3 0.507 inactive; #4 -0.354 inactive
REEP1: #1 -0.114 inactive; #2 -0.0748 inactive; #3 -0.0376 inactive; #4 -0.032 inactive
DLG4: #1 0.575 inactive; #2 -0.0109 inactive; #3 -0.0941 inactive; #4 0.0422 inactive
NME2P1: #1 -0.0097 inactive
NSG1: #1 0.17 inactive; #2 -0.0833 inactive; #3 -0.478 inactive
PPIB: #1 -0.182 inactive; #2 -0.375 inactive; #3 -0.418 inactive; #4 0.381 inactive
PRKAG2: #1 -0.0849 inactive; #2 -0.032 inactive; #3 -0.345 inactive; #4 0.102 inactive

Records listed so far whose target name starts with M or m (8):
log2 vehicle/camptothecin viability, by gene symbol and reagent
MYH7B: #1 -0.171 inactive; #2 -0.236 inactive; #3 -0.29 inactive; #4 0.406 inactive
MCEMP1: #1 -0.042 inactive; #2 -0.637 inactive; #3 0.0992 inactive; #4 -0.393 inactive
